The values below come from paper PMC5047748.

The chains behind the UniProt entries cited, without tags or fusion partners.
UniProt Q9VY77: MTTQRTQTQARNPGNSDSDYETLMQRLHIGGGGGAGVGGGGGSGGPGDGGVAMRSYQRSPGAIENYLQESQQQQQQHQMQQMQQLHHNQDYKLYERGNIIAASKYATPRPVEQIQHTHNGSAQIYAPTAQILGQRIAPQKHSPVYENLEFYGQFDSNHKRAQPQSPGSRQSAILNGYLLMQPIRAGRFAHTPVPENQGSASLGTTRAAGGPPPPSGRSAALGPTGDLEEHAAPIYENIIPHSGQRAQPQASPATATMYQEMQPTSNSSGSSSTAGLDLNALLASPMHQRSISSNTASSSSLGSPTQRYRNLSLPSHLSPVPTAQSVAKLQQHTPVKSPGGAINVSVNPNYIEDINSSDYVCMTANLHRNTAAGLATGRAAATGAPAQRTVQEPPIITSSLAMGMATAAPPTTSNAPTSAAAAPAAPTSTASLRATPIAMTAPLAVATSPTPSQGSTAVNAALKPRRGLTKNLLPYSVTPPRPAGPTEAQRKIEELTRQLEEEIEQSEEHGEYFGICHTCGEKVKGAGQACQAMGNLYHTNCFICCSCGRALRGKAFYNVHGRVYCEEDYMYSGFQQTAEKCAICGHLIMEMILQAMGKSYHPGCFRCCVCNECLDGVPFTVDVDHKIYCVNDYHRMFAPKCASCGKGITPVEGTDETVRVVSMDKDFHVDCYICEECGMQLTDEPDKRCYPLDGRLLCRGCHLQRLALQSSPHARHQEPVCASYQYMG
UniProt Q24311: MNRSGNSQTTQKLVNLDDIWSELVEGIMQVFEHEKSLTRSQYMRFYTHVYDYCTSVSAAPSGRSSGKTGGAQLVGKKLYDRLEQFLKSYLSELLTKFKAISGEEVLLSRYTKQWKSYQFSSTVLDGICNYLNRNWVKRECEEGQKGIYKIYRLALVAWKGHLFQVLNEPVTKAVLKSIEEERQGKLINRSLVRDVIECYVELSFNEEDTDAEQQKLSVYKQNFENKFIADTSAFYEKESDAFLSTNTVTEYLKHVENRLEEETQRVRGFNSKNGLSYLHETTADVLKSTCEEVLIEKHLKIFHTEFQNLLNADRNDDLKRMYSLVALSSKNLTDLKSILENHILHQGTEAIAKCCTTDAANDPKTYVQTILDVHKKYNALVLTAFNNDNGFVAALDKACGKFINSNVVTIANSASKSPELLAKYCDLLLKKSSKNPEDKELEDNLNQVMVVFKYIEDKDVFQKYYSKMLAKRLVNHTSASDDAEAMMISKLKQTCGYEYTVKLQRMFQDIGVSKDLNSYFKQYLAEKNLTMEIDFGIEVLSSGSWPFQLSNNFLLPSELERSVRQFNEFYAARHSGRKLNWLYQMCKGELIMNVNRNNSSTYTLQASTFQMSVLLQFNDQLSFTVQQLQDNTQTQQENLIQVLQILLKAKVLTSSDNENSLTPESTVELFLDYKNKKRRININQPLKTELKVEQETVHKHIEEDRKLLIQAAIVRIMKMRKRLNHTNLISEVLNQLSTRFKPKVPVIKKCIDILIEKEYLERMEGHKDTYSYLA
UniProt O77430: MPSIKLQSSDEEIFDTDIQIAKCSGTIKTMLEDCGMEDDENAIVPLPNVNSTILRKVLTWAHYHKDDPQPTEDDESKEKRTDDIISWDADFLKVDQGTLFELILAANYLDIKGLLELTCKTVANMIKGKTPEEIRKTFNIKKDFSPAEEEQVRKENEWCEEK
UniProt O76324: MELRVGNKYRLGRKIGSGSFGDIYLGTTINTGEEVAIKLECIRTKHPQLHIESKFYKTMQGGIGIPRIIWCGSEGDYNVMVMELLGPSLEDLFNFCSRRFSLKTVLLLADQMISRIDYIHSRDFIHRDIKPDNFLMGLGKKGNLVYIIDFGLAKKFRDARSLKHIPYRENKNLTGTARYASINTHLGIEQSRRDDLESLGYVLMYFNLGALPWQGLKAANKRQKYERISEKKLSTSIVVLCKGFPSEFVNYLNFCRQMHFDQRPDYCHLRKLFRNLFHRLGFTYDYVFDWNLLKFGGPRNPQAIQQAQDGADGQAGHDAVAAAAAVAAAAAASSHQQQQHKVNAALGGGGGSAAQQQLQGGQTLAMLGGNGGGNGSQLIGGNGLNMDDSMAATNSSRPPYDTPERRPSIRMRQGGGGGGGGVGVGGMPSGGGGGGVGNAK

Results are given in words; binding and its absence hold for the method and conditions named. In cells and extracts the contact can be indirect. Some binding calls cover weakened binding; strength is not graded here.

Among the targets are Ajuba (Drosophila) (UniProt Q9VY77); Cullin 1 (Drosophila) (UniProt Q24311); SkpA (Drosophila) (UniProt O77430).
Holding throughout (test): co-IP; transfected S2R+ cells; RIPA lysis buffer (50 mM Tris pH 7.5, 150 mM NaCl, 1 mM EDTA, 1% NP40, 5% glycerol); 1 µg antibodies 1 hr then Protein A beads 2 hr at 4°C; western blot
(A western blot detects proteins with antibodies after separation by electrophoresis.)

Experiment [1] concerns the target Discs overgrown (Dco), casein kinase 1ε (Drosophila) (UniProt O76324).

B1: Dlish (CG10933), expressed in S2 cells for co-IP (protein, UniProt A1ZAY1 1-355)
chain: MAFLCPVRMRRDKKKATNASIERDLPAVGVLGMGRITGSSSIETLVRVGIEKEHGLSPDSKMVVLHDFTPCVDDELEVKRGQLVNILYRENDWVYVIGQDSRQEGFIPFSYCAPCNTQLADLAVKKKLPREQCPEQPIEENIPLLGTDNKLDVLCDETLNPGSANSIENTLLVEPECTPFVKEPSGRCIVLYTFIARDENDLSVERGEFVTVLNREDPDWFWIMRSDGQEGFVPASFIYPADSVRVLQQQKATLNAMETILQQGQQGQQSQQQQQPQLGLGTDDLRYHGTELVMLYDYKAQAPDDLYLSVRRGDWIYADLTNQTVDGWLWAYAPKTRKYGFIPKAYARPPAMTSL
As to B1, the binding entry with Ajuba (Drosophila) is reported as “no binding”; in the experiment with Cullin 1 (Drosophila), “binds”; in experiment [1] it was “binds”; in the experiment with SkpA (Drosophila), “no binding”.
